These are yes or no findings as the source states them, for the method shown. Binding seen in cells or lysates may run through a third protein. Some results given as binding are weak or reduced against the parent protein; the word gives no strength. Tags and fused reporters may be left off the sequences shown.
Key:
[1] = target: T1, AtTCTP-GFP (line AtTCTPg-GFP, own promoter) (Arabidopsis thaliana) (UniProt P31265); experiment: co-IP; anti-GFP antibody coupled to magnetic uMACS microbeads, 1 hour at 4°C, Miltenyi lysis buffer with protease inhibitors; extracts of Arabidopsis seedlings, mature green seeds or inflorescences; Western blot of eluates
T1 sequence: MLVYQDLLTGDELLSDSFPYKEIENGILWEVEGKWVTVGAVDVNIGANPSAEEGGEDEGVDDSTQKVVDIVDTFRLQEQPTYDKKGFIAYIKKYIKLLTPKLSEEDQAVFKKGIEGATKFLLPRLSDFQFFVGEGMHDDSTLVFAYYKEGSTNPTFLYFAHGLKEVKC

[2] = target: T2, AtTCTP-GFP (line 35S::AtTCTP-GFP) (Arabidopsis thaliana) (UniProt P31265); experiment: as above
T2 sequence: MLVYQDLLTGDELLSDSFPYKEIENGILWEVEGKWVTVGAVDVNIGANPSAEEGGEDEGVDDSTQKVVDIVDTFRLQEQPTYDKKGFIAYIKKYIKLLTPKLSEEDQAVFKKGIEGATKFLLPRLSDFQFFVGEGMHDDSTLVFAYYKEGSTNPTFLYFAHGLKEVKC

[3] = target: T3, dTCTP-GFP (Drosophila TCTP fused to GFP) (Drosophila) (UniProt Q9VGS2); experiment: as above
T3 sequence: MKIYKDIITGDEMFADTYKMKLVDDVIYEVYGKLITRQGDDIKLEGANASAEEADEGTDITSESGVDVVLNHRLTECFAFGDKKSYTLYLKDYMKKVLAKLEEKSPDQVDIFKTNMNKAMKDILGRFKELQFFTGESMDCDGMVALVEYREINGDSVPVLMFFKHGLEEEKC

[4] = target: T4, AtCSN4-GFP (Arabidopsis thaliana) (UniProt Q8L5U0); experiment: as above
T4 sequence: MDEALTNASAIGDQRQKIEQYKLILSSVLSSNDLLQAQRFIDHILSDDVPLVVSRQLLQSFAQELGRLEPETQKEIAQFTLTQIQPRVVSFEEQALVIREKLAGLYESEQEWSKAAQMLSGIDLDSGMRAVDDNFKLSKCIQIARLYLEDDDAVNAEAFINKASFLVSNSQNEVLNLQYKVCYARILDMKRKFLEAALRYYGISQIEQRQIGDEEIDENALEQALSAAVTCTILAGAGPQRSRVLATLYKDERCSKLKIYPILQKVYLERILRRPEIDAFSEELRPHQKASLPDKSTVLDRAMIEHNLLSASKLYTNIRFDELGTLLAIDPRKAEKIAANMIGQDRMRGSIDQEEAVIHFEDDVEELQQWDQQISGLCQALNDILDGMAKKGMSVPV

[5] = target: AtCSN4 fused with N- or C-terminal YFP moiety (BiFC) (Arabidopsis thaliana) (UniProt Q8L5U0); experiment: split reporter; BiFC with split YFP moieties, co-expression in Nicotiana benthamiana leaf epidermal cells, observed four days post-infiltration by confocal microscopy
[6] = target: T5, AtTCTP fused with N- or C-terminal YFP moiety (BiFC) (Arabidopsis thaliana) (UniProt P31265); experiment: as above
T5 sequence: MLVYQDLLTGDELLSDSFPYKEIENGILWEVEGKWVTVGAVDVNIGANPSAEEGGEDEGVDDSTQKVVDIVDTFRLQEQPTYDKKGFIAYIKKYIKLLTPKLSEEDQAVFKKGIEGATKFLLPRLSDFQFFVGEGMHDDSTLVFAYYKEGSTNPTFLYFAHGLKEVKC

Row | Binder | binding [1] | binding [6] | further results
1 | AtCSN4-Flag (protein, UniProt Q8L5U0 1-397) MDEALTNASAIGDQRQKIEQYKLILSSVLSSNDLLQAQRFIDHILSDDVPLVVSRQLLQSFAQELGRLEPETQKEIAQFTLTQIQPRVVSFEEQALVIREKLAGLYESEQEWSKAAQMLSGIDLDSGMRAVDDNFKLSKCIQIARLYLEDDDAVNAEAFINKASFLVSNSQNEVLNLQYKVCYARILDMKRKFLEAALRYYGISQIEQRQIGDEEIDENALEQALSAAVTCTILAGAGPQRSRVLATLYKDERCSKLKIYPILQKVYLERILRRPEIDAFSEELRPHQKASLPDKSTVLDRAMIEHNLLSASKLYTNIRFDELGTLLAIDPRKAEKIAANMIGQDRMRGSIDQEEAVIHFEDDVEELQQWDQQISGLCQALNDILDGMAKKGMSVPV | binds | – | –
2 | AtCSN4 (endogenous), subunit 4 of the COP9 Signalosome (protein, UniProt Q8L5U0 1-397) MDEALTNASAIGDQRQKIEQYKLILSSVLSSNDLLQAQRFIDHILSDDVPLVVSRQLLQSFAQELGRLEPETQKEIAQFTLTQIQPRVVSFEEQALVIREKLAGLYESEQEWSKAAQMLSGIDLDSGMRAVDDNFKLSKCIQIARLYLEDDDAVNAEAFINKASFLVSNSQNEVLNLQYKVCYARILDMKRKFLEAALRYYGISQIEQRQIGDEEIDENALEQALSAAVTCTILAGAGPQRSRVLATLYKDERCSKLKIYPILQKVYLERILRRPEIDAFSEELRPHQKASLPDKSTVLDRAMIEHNLLSASKLYTNIRFDELGTLLAIDPRKAEKIAANMIGQDRMRGSIDQEEAVIHFEDDVEELQQWDQQISGLCQALNDILDGMAKKGMSVPV | binds | – | binding [2]: binds; binding [3]: binds
3 | AtTCTP (untagged) (protein, UniProt P31265 1-168) MLVYQDLLTGDELLSDSFPYKEIENGILWEVEGKWVTVGAVDVNIGANPSAEEGGEDEGVDDSTQKVVDIVDTFRLQEQPTYDKKGFIAYIKKYIKLLTPKLSEEDQAVFKKGIEGATKFLLPRLSDFQFFVGEGMHDDSTLVFAYYKEGSTNPTFLYFAHGLKEVKC | – | – | binding [4]: binds
4 | AtCSN4 fused with N- or C-terminal YFP moiety (BiFC) (protein, UniProt Q8L5U0 1-397) MDEALTNASAIGDQRQKIEQYKLILSSVLSSNDLLQAQRFIDHILSDDVPLVVSRQLLQSFAQELGRLEPETQKEIAQFTLTQIQPRVVSFEEQALVIREKLAGLYESEQEWSKAAQMLSGIDLDSGMRAVDDNFKLSKCIQIARLYLEDDDAVNAEAFINKASFLVSNSQNEVLNLQYKVCYARILDMKRKFLEAALRYYGISQIEQRQIGDEEIDENALEQALSAAVTCTILAGAGPQRSRVLATLYKDERCSKLKIYPILQKVYLERILRRPEIDAFSEELRPHQKASLPDKSTVLDRAMIEHNLLSASKLYTNIRFDELGTLLAIDPRKAEKIAANMIGQDRMRGSIDQEEAVIHFEDDVEELQQWDQQISGLCQALNDILDGMAKKGMSVPV | – | binds | binding [5]: binds
5 | AtTCTP fused with N- or C-terminal YFP moiety (BiFC) (protein, UniProt P31265 1-168) MLVYQDLLTGDELLSDSFPYKEIENGILWEVEGKWVTVGAVDVNIGANPSAEEGGEDEGVDDSTQKVVDIVDTFRLQEQPTYDKKGFIAYIKKYIKLLTPKLSEEDQAVFKKGIEGATKFLLPRLSDFQFFVGEGMHDDSTLVFAYYKEGSTNPTFLYFAHGLKEVKC | – | binds | –
